The supplement of paper PMC7024190
The list shows a part of the results. This data set is noisy: repeats of one test often differ as much as different tests do.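 The cells were human embryonic kidney cells carrying a Renilla luciferase gene, driven by the HSV-TK promoter, on a plasmid put in briefly by transfection. This is the first-round screen of about ten thousand compounds, looking for ones that raise reporter output.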

System: HEK 293FT
Assay: log relative Renilla luciferase luminescence (reporter expression vs reference, reference not stated) (log (base not stated)); higher = higher recombinant reporter expression
Conditions: 10 µM; time after transfection 48 h

| SMILES | log |
| --- | --- |
| Cc1ncc([N+](=O)[O-])n1CCO | 0.158 |
| CC[C@H](C)C(=O)O[C@H]1CCC=C2C=C[C@H](C)[C@H](CC[C@@H]3C[C@@H](O)CC(=O)O3)[C@H]21 [mevastatin] | 0.202 |
| CN(C)CCc1c[nH]c2ccc(Cn3cncn3)cc12 | -0.631 |
| C[C@H]1[C@H](OC(=O)CCC(=O)O)O[C@@H]2O[C@@]3(C)CC[C@H]4[C@H](C)CC[C@@H]1[C@@]24OO3 | -1.54 |
| C=CC1=C(C(=O)O)N2C(=O)[C@@H](NC(=O)/C(=N\OCC(=O)O)c3csc(N)n3)[C@H]2SC1 | 0.118 |
| CCn1cc(C(=O)O)c(=O)c2cc(F)c(N3CCN(C)CC3)cc21 | -0.0796 |
| Cc1[nH]cnc1CN1CCc2c(c3ccccc3n2C)C1=O | -0.081 |
| O=C(c1ccccc1)c1ccc2n1CCC2C(=O)O (stereo not given) | -0.235 |
| C[C@H]1O[C@H](O[C@H]2[C@H](O)[C@@H](O)[C@@H](O[C@H]3[C@H](O)[C@@H](O)C(O)O[C@@H]3CO)O[C@@H]2CO)[C@H](O)[C@@H](O)[C@@H]1N[C@H]1C=C(CO)[C@@H](O)[C@H](O)[C@H]1O (stereo not given in full) | -0.138 |
| Cc1c2oc3c(C)ccc(C(=O)N[C@@H]4C(=O)N[C@H](C(C)C)C(=O)N5CCC[C@H]5C(=O)N(C)CC(=O)N(C)[C@@H](C(C)C)C(=O)O[C@@H]4C)c3nc-2c(C(=O)N[C@@H]2C(=O)N[C@H](C(C)C)C(=O)N3CCC[C@H]3C(=O)N(C)CC(=O)N(C)[C@@H](C(C)C)C(=O)O[C@@H]2C)c(N)c1=O | -1.2 |
